Some results were stated once for a whole list of compounds, not compound by compound. Some compounds share one range, which may span the group rather than tell each member. Where no end group is shown, it is not given here.
Test system: human red blood cells
Test: Hemolysis assay
Type: cell-based
Details: comparison among the peptides of Table 4
Experimental: 1-3 mL human blood was centrifuged at 3000 rpm, 4° C. for 10 minutes. The supernatant was discarded. The remaining was washed with cold phosphate buffer saline (PBS) and centrifuged at 3000 rpm, 4° C. for 1 minute. The supernatant was discarded. The remaining red blood cells were washed and diluted as 2% red blood cell solution with cold PBS.
A mixture of 100 μL red blood cell solution and 100 μL PBS was served as a negative control. A mixture of 100 μL red blood cells solution and 100 μL 0.2% Triton X-100 was served as a positive control. The solution of peptide 1, peptide 2, peptide 3, peptide 5, and peptide 6 were respectively mixed with red blood cell solution with the same volume and incubated at 37° C. for 1 hour. After incubation, the mixture was centrifuged at 3000 rpm, 4° C. for 10 minutes. Each of the supernatant was collected to measure the absorbance at wavelength of 405 nm by an ELISA plate reader. The hemolysis of each peptide was calculated according to the following equation, wherein Abs represents the absorbance. [(Abspeptide−AbsPBS)/(AbsTriton X-100−AbsPBS)]×100

KWLRRPWRRWR-NH2 [peptide 2, KWLRRPWRRWR]
Hemolysis, comparison in words: obviously lower than that of the peptide 5 and 6
